Experimental data published in patent publication US20210386705A1, “APPLICATION OF CHIGLITAZAR AND RELATED COMPOUNDS THEREOF” (SHENZHEN CHIPSCREEN BIOSCIENCES CO., LTD., priority 2018, published 2021).
“And” between values parts separate entries of the source, which are not always exact repeats. Identical values can stand only once. For at least one compound, name, drawing or mass did not settle the structure.

What was measured:
[1] = tested on: monocytic cell line THP-1; assay: MCP-1-induced chemotaxis of THP-1 cells (Transwell); assay type: cell-based, human; settings: MCP-1 10 ng/mL, compound 3 μmol/L
Text: In an in vitro model, migration of the monocytic cell line THP-1 induced by a certain concentration of chemokines (such as monocyte chemotactic protein 1, MCP-1), and accordingly such in vivo process was mimicked. Transwell technology, according to the manufacturer's instructions from Corning Inc., is considered that Traswell is a kind of a polycarbonate membrane filter as well as a permeable holder. The polycarbonate membrane divides a culture chamber into upper and lower ones, where the components of the culture medium in the lower chamber can affect the growth, differentiation and movement of the cells in upper chamber. Finally, the cell migration ability can be reflected by staining and counting the cells in the lower chamber.
When cultured to the log phase stage, THP-1 cells were resuspended, adjusted the concentration, and seeded in 24-well plates, followed by being pretreated with the culture media containing the compound to be tested (sodium chiglitazar) or the reference compound GFT505, pioglitazone, or PPARγ single agonist rosiglitazone (all purchased from Selleck) for 24 hours. Transwells were used according to the manufacturer's instructions. The culture media containing chemokine MCP-1 were added to the lower chamber (i.e., the bottom of the 24-well plates), and the cell suspension was added to the upper chamber and cultured for 4 hours. Later, the cells cultured on the “ceiling” surface of the polycarbonate membrane were fixed and stained with crystal violet solution (FIG. 6), and then the number of cells in the lower chamber was counted (Table 3).

[2] = tested on: primary human hepatic stellate cells; assay: PDGF-BB stimulated proliferation of hepatic stellate cells (EdU and MTT assay); assay type: cell-based; settings: EdU 24 hours, MTT 72 hours, FIGS. 1-2
Method: Primary human hepatic stellate cells (HSC) purchased from Sciencell Research Laboratories, Inc. were seeded into 96-well plates with complete growth media (Stellate Cell Medium) for 24 hours, followed by culturing overnight in culture media free of serum and growth factors, and then the culture media were replaced by fresh media containing platelet-derived growth factor (PDGF-BB) and the compounds to be tested (chiglitazar sodium or the reference compound PPARγ/α dual agonist pioglitazone purchased from Selleck Chemicals LLC) at various concentrations, and the cells were cultured for 24 hours. When the cells were treated with the compounds for the last 17 hours, EdU (5-ethynyl-2′-deoxyuridine) was added to the cells. Finally, the culture media were removed and the cells were fixed with formaldehyde. The amount of the EdU incorporated into the DNA of the cells was quantified by fluorescent Click-it EdU assay according to the manufacturer's instructions (Beyotime). […] The inhibition of cell proliferation by the compounds was determined by comparing the EdU incorporated value of the control group (FIG. 1). […]

[3] = tested on: primary human dermal fibroblasts; assay: PDGF-BB stimulated proliferation of dermal fibroblasts (MTT assay); assay type: cell-based; settings: MTT 72 hours, FIG. 3
Method: Primary human hepatic stellate cells or primary human dermal fibroblasts (HDF), both purchased from Sciencell, were seeded into 96-well plates with complete growth media (Stellate Cell Medium or Fibroblast Cell Medium) for 24 hours, followed by culturing overnight in the culture media free of serum and growth factors, and then the culture media were replaced by fresh medium containing platelet-derived growth factor (PDGF-BB) and the compounds to be tested at various concentrations, and the cells was cultured for another 72 hours. Measurement was performed using a conventional MTT assay kit (Promega). […] The inhibition of cell proliferation by the compounds was determined by comparing the absorbance value of the control group (FIGS. 2, 3).

[4] = 24 hours pretreatment, 4 hours migration

Structure (SMILES) | Cell concentration in lower chamber, Mean value [1, 4] [cells/ml] | Cell concentration in lower chamber, single replicates [1, 4] | Migration rate ([1]; solvent control + MCP-1 = 100) [%] | Inhibition of in vitro proliferation of liver-derived fibroblasts [2] | Inhibition of in vitro proliferation of skin-derived fibroblasts [3] | Inhibition of migration activity of THP-1 induced by monocyte chemokine (in words) ([1]; Table 3 and FIG. 6)
CN(CCOc1ccc(CC2SC(=O)NC2=O)cc1)c1ccccn1 (stereo not drawn) [Rosiglitazone, rosiglitazone] | 21480 | 21804 cells/ml and 21883 cells/ml and 20752 cells/ml | 76.96 | – | – | –
CCc1ccc(CCOc2ccc(CC3SC(=O)NC3=O)cc2)nc1 (stereo not drawn) [pioglitazone] | – | – | – | no obvious inhibitory activity | no obvious inhibitory activity | partial inhibitory activity
